Test results published in patent US11312939B2, “Constructs for chimeric antigen receptors” (Carisma Therapeutics Inc., priority 2020, dated 2022).
For at least one compound, name, drawing or mass did not settle the structure.

Tests used:
[1] = system: Human macrophages transfected with mCherry mRNA; assay: mCherry mRNA expression in transfected macrophages (Incucyte); assay type: cell-based
Description: Human macrophages were transfected with mCherry mRNA comprising m6AGCap1 and PsU or N1 mPsU modifications and were then cultured for one day with different doses of IFN-γ. mCherry expression was monitored on an Incucyte® live imaging microscope.
In order to determine whether an RNaseL inhibitor could rescue IFN-γ-induced instability of transfected mRNA, human macrophages were treated with 1 μM sunitinib (an RNaseL inhibitor) two hours prior to the transfection of mCherry mRNA comprising m6AGCap1 and PsU modifications. Transfected cells were then cultured for one day with different dosages of IFN-γ. mCherry expression was monitored on an Incucyte® live imaging microscope.
The effect of another RNaseL inhibitor (RLI or ABCE1) was also tested to further validate the concept. Human macrophages were co-transfected with mRNA encoding mCherry comprising m6AGCap 1 and PsU modifications and with mRNA encoding ABCE1.

[2] = system: CRL2351 breast cancer cell; assay: Cancer cell killing by sunitinib pre-treated CAR macrophages; assay type: cell-based; details: pre-treated with 1 nM

CCN(CC)CCNC(=O)c1c(C)[nH]c(/C=C2\C(=O)Nc3ccc(F)cc32)c1C [sunitinib]
mCherry expression, pre-treatment added to ABCE1 co-transfection [1]: further enhanced this effect | mCherry expression under IFN-γ ([1]; 1 μM two hours prior to transfection, then IFN-γ one day): rescued the IFN-γ-induced degradation of mRNA | cancer cell killing vs not pre-treated CAR macrophages [2]: higher cancer cell killing
